The values that follow come from US5780296.

In the data set the test system is T1, REC2 recombinase (Ustilago maydis).
T1 sequence (limits assumed): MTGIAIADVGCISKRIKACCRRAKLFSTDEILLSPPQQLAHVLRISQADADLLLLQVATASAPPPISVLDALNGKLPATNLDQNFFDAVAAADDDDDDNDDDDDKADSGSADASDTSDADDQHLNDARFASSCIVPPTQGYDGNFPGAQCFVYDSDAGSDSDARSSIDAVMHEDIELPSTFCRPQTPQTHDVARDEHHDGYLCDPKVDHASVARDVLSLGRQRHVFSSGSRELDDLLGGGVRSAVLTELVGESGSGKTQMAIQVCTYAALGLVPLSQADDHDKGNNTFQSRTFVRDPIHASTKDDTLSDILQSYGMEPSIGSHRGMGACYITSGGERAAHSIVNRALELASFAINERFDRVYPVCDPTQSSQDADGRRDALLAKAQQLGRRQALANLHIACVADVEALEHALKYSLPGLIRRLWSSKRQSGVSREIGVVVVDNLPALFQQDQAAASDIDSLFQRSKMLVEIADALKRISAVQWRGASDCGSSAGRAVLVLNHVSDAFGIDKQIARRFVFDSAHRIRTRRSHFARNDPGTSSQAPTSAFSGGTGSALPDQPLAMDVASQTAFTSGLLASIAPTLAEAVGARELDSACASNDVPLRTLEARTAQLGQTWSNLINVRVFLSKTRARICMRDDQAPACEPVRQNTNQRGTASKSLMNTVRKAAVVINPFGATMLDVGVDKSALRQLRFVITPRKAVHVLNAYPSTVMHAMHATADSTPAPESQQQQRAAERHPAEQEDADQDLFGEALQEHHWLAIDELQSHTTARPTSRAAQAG
Description: filter binding. The note with it: 15 contiguous RNA nucleotides in one strand; joint molecules with ssDNA circles; ATP, 10 mM MgCl2; reducing RNA length lowered pairing, not to zero at 3 RNA residues; purified recombinant protein; label: 32P.

Construct, isoform or probe ends are uncertain for at least one entry. Tags and fusion partners may be left off the protein sequences shown.

In the case of “TAGAGGATCCCCGGGTTTTCCCGGGGAUCCUCUAGAGTTTTCTC [chimeric RNA/DNA hairpin duplex]”, the “activity on this sequence” value is “active”.
